Data as given in PubChem BioAssay AID1259308 (NCATS, 2017)
Shown is one part, drawn at random, of about 59,000 reagents tested. Over the whole deposit, about 1,510 (2.6%) got an active call. 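Calls use total luciferase alone and ignore viability, so some active siRNAs may act by altering cell number.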 Entries without a mark were called inactive. Reagents against one gene are numbered here. Not all columns of the deposit are shown.

Purpose: 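Candidate targets for better recombinant protein yield in mammalian cells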 (primary screen)
Cell system: human HEK293 embryonic kidney cells stably expressing firefly luciferase (HEK-CMV-Luc2-Hygro)
Reagent: single siRNA against human genes, 0.8 pmol siRNA per well
Duration: 72 h
Read-out: 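Reporter luminescence and viable-cell signal on separate replicate plates, given as percent of non-targeting control and median/MAD z-scores, plus per-cell luciferase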
Reading the numbers: total luciferase, z-score: higher = more reporter protein produced
Rule for the call: 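Active when the median/MAD z-score for overall luciferase is greater than 3; a gene was taken forward for validation with new siRNAs if at least two of its three siRNAs passed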
Meaning of the calls: active = raised luciferase; inactive = no rise

After knock-down of ASB9P1 (ankyrin repeat and SOCS box containing 9 pseudogene 1) #1 the results were total luciferase, z-score 2.23.
For ASB9P1 (ankyrin repeat and SOCS box containing 9 pseudogene 1) #2, the values are total luciferase, z-score 0.674.
With knock-down of ASB9P1 (ankyrin repeat and SOCS box containing 9 pseudogene 1) #3, the screen gave total luciferase, z-score -1.72.
With knock-down of MYH13 (myosin heavy chain 13) #1, the screen gave total luciferase, z-score -1.49.
MYH13 (myosin heavy chain 13) #2 showed total luciferase, z-score -0.146.
With knock-down of MYH13 (myosin heavy chain 13) #3, the record shows total luciferase, z-score 0.61.

2 successive entries from above, for reference:
MYH13 (myosin heavy chain 13) #2 — total luciferase, z-score: -0.146
MYH13 (myosin heavy chain 13) #3 — total luciferase, z-score: 0.61

The results go on.
ZNF33B (zinc finger protein 33B) #1 scored total luciferase, z-score -0.693.
Knock-down of ZNF33B (zinc finger protein 33B) #2 resulted in: total luciferase, z-score -0.401.
ZNF33B (zinc finger protein 33B) #3 showed total luciferase, z-score -1.92.
Silencing of FASTK (Fas activated serine/threonine kinase) #1 resulted in: total luciferase, z-score -0.739.
For FASTK (Fas activated serine/threonine kinase) #2, the values are total luciferase, z-score 2.76.
FASTK (Fas activated serine/threonine kinase) #3 showed total luciferase, z-score -0.0611.
